## Screening data, single-dose tests

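Cell assay of Leishmania donovani living inside macrophages; the read-out is not stated. Tested at 30 µM. Direction is inferred from retests: higher values go with stronger inhibition. Of about 69,000 compounds tested this way, about 1,000 (1.5%) reached 50% or more in at least one test.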

The filed quantity is “Percent Effect” (%). The record does not define 0% and 100%; most values in the screen are far below 50% and negative numbers occur (in some assays of this library far below -100). Compounds were drawn at random from those tested, without regard to their results. Two or more numbers in one place are separate tests of the same structure; such repeats can differ widely.

SMILES	percent effect
[H][C@@]12CS(=O)(=O)C[C@]1([H])N(Cc1ccc(F)cc1)CCN2C(=O)C1CCC1	5.502
CC(C)CN1CCC2(CCN(Cc3ccsc3)CC2)C1=O	49.31
CCOc1ncccc1C(=O)N1CC=C(c2ccc(O)cc2)CC1	18.77
O=C(C1CCC2(CCN(CC3CCOCC3)CC2)O1)N1CCCC1.O=C(O)C(F)(F)F (stereo not given)	11.8
COCCC(=O)N(C)CCC1=CCN(C)CC1	-19.31
O=C(Nc1cnc2n1CCCC2)c1cccc(-n2cnnc2)c1	17.5
CNc1cc(C2CCCN(C(=O)c3ccc(=O)[nH]n3)C2)ccn1 (stereo not given)	16.45
CC(C)N1CCC(Cc2cncc(-c3cccc(C(=O)O)c3)n2)C1 (stereo not given)	-4.47
O=C(O)C(F)(F)F.O=C1COC2(CCN(CC3CC3)CC2)CN1c1ccccc1	45.92
CNc1nc(CNC(=O)Nc2cccc(F)c2C)cs1	20.1
O=C(CCc1ccc2c(c1)OCO2)Nc1cccnc1-n1cncn1	8.743
CC(=O)N1CCCC(C(=O)NCCc2ccc(F)c(Br)c2)C1 (stereo not given)	-16.77
CN(Cc1ccsc1)C(=O)CN1CCCCC1Cn1cccn1 (stereo not given)	17.96
COc1ccc(CN2CCC3(CC2)CN(c2ccccn2)CCO3)cc1.O=C(O)C(F)(F)F.O=C(O)C(F)(F)F	-28.76
CCCOc1ccc(Cl)cc1C(=O)N1CCC(n2cncn2)CC1	-4.154
O=C(NCCNC(=O)c1scnc1Cl)c1cccs1	24.85
Cn1nc(Br)nc1Sc1ccccc1NC(=O)C1CC1	9.163
Cc1cnn(C(C)C2CC2)c1NC(=O)c1ccc(Cn2cnnn2)cc1 (stereo not given)	-7.614
COc1cc(C)nc(N2CCN(C(=O)CNC(C)(C)C)CC2)n1	14.67
CCCn1ncc(C(=O)NCc2n[nH]c3c2CCCCC3)c1C	1.402
O=C(O)C(F)(F)F.O=C(O)C(F)(F)F.c1ccc(CN2CCC3(CC2)CCN(c2ccccn2)C3)nc1	48.64
O=C(C1CC1)N1CC[C@H](c2nnc(Cc3c[nH]c4ccccc34)o2)C1	-2.152
Cc1cnn(CC2CCCN2C(=O)c2nccnc2N)c1 (stereo not given)	-10.22
CC(=O)N1CC(=O)N(c2cnn(C)c2)CC12CCN(Cc1cccs1)C2.O=C(O)C(F)(F)F (stereo not given)	11.34
CCc1cc(NCC(O)CN2CCCCC2)n2ncnc2n1 (stereo not given)	16.41
CC(=O)Nc1nc(C2CCN(C(=O)c3cncs3)CC2)cs1	29.17 and 8.941
O=C(CCC1CCCO1)NCCCC(=O)Nc1ccc(Cl)cc1 (stereo not given)	35.75
CC(C(=O)Nc1ccon1)n1ccc(C(F)(F)F)n1 (stereo not given)	21.43
COCCN(c1ccncc1)S(=O)(=O)c1cc(C)cc(F)c1	16.83
O=c1[nH]c(-c2ccncc2)ncc1-c1ccnc(NC2CCCCC2)n1	14.52 and -3.92
CN(Cc1ccco1)C(=O)CN1CCOC(Cn2cncn2)C1 (stereo not given)	16.52
CC(=O)NC1CCCN(C(=O)Nc2cnc3c(cnn3C(C)C)c2)C1 (stereo not given)	8.36
[H][C@]12CC[C@]([H])(CN(c3nccc(C)n3)C1)N(CC1CCC1)C2=O	5.885
CCOCC1CCCN(C(=O)NCc2ccc(-c3ccn[nH]3)cc2)C1 (stereo not given)	-14.66
O=C(O)C(F)(F)F.O=C(O)C(F)(F)F.O[C@H]1CCN(CC2CC2)[C@H]1Cc1ccncc1	9.959
Cc1nnc(N2CCC(CCN(C)C)CC2)c(C#N)c1C	25.93
O=C(O)C(F)(F)F.[H][C@@]12CCN(CCc3ccccc3)C[C@]1([H])[C@H](C(=O)N1CCCC1)CCO2	5.242
CC1CCN(C(=O)C(C)Oc2ccc3c(c2)OCO3)CC1 (stereo not given)	21.48
O=C(c1cccs1)N1CCc2c(nc(N3CCCCC3)[nH]c2=O)C1	8.909
Cc1ccccc1C(=O)NC[C@@H]1CCN(C(=O)C2(O)CCCC2)C[C@H]1O	27.7
CN(C)CCOCc1nnc2n1CCN(Cc1ccoc1)CC2.O=C(O)C(F)(F)F.O=C(O)C(F)(F)F	6.949
CCNc1ncc(C(=O)N2CCOC(CCCc3ccccc3)C2)cn1 (stereo not given)	-11.54
Cc1cc(C)n(CC2CN(Cc3nnsc3Cl)CCO2)n1 (stereo not given)	19.58
CN(CCCOc1ccccc1)S(=O)(=O)N1CCOCC1	22.1
O=C(NC1CCN(CC2CCCC2)C1)N1CCC(OCC2CC2)CC1 (stereo not given)	32.77
CC(C)C(=O)N1CCCN(C(=O)NC2CCc3ccccc3C2)CC1 (stereo not given)	0.5464
[H][C@]12CC[C@]([H])(CN(Cc3ccccc3)C1)N(Cc1snnc1C)C2	-21.52
CCNC(=O)NC1CN(Cc2ccncc2Cl)C[C@@H]1OC (stereo not given in full)	24.51
CN1CCOC(CNC(=O)CCCOCCc2ccccc2)C1 (stereo not given)	8.988
CCC(C)NC(=O)CCNC(=O)c1c[nH]cc1-c1cccc(OC)c1 (stereo not given)	-15.63

The last 6 entries again:

SMILES,percent effect
O=C(NC1CCN(CC2CCCC2)C1)N1CCC(OCC2CC2)CC1 (stereo not given),32.77
CC(C)C(=O)N1CCCN(C(=O)NC2CCc3ccccc3C2)CC1 (stereo not given),0.5464
[H][C@]12CC[C@]([H])(CN(Cc3ccccc3)C1)N(Cc1snnc1C)C2,-21.52
CCNC(=O)NC1CN(Cc2ccncc2Cl)C[C@@H]1OC (stereo not given in full),24.51
CN1CCOC(CNC(=O)CCCOCCc2ccccc2)C1 (stereo not given),8.988
CCC(C)NC(=O)CCNC(=O)c1c[nH]cc1-c1cccc(OC)c1 (stereo not given),-15.63

Measurements from “University of Dundee, Small-Polar-MMV Screening Library” (2021), ChEMBL document CHEMBL3988442.